The record followed here is publication PMC6756068.

Results are given in words; binding and its absence hold for the method and conditions named. Binding can be weak; no strength is given. For part of these data: Binding seen in cells or lysates may run through a third protein.

Experiment [1] addresses GST-merlin tail (isoform 1). The experiment in a line: pull-down; GST-merlin fragments pull down FL RasGAP purified from E. coli; western blot; both purified.
In experiment [2] the target is GST-merlin tail (isoform 1). The experiment is described as follows: pull-down; GST-merlin fragments pull down RasGAP from Sc4 cell lysate; western blot; only the target purified.
Experiment [3] has as its target GST-merlin FERM with the F3 subdomain deleted. Described as above.

B1: full-length (FL) RasGAP purified from E. coli (protein, UniProt P20936 1-1047)
chain: MMAAEAGSEEGGPVTAGAGGGGAAAGSSAYPAVCRVKIPAALPVAAAPYPGLVETGVAGTLGGGAALGSEFLGAGSVAGALGGAGLTGGGTAAGVAGAAAGVAGAAVAGPSGDMALTKLPTSLLAETLGPGGGFPPLPPPPYLPPLGAGLGTVDEGDSLDGPEYEEEEVAIPLTAPPTNQWYHGKLDRTIAEERLRQAGKSGSYLIRESDRRPGSFVLSFLSQMNVVNHFRIIAMCGDYYIGGRRFSSLSDLIGYYSHVSCLLKGEKLLYPVAPPEPVEDRRRVRAILPYTKVPDTDEISFLKGDMFIVHNELEDGWMWVTNLRTDEQGLIVEDLVEEVGREEDPHEGKIWFHGKISKQEAYNLLMTVGQVCSFLVRPSDNTPGDYSLYFRTNENIQRFKICPTPNNQFMMGGRYYNSIGDIIDHYRKEQIVEGYYLKEPVPMQDQEQVLNDTVDGKEIYNTIRRKTKDAFYKNIVKKGYLLKKGKGKRWKNLYFILEGSDAQLIYFESEKRATKPKGLIDLSVCSVYVVHDSLFGRPNCFQIVVQHFSEEHYIFYFAGETPEQAEDWMKGLQAFCNLRKSSPGTSNKRLRQVSSLVLHIEEAHKLPVKHFTNPYCNIYLNSVQVAKTHAREGQNPVWSEEFVFDDLPPDINRFEITLSNKTKKSKDPDILFMRCQLSRLQKGHATDEWFLLSSHIPLKGIEPGSLRVRARYSMEKIMPEEEYSEFKELILQKELHVVYALSHVCGQDRTLLASILLRIFLHEKLESLLLCTLNDREISMEDEATTLFRATTLASTLMEQYMKATATQFVHHALKDSILKIMESKQSCELSPSKLEKNEDVNTNLTHLLNILSELVEKIFMASEILPPTLRYIYGCLQKSVQHKWPTNTTMRTRVVSGFVFLRLICPAILNPRMFNIISDSPSPIAARTLILVAKSVQNLANLVEFGAKEPYMEGVNPFIKSNKHRMIMFLDELGNVPELPDTTEHSRTDLSRDLAALHEICVAHSDELRTLSNERGAQQHVLKKLLAITELLQQKQNQYTKTNDVR
As for B1, the binding result in experiment [1] is on record as “binds”.

B2: RasGAP of Sc4 cells (protein, UniProt E9PYG6 1-1038)
chain: MMAAEAGSEEGGPATAGPGGGAATGSSAYSAACRVKLPAALPVAAAPCPGLADADLVAALGGGAASGSGFLGTGPVAGVLGGAALTGSAAAGVAGAAAAGPAGDVAFTKGTLSLPAETLGPGGGFPPLPPPPQLPPLGSGLGTVDEGDSLDGPEYEEEEVAIPLTAPPTNQWYHGKLDRTIAEERLRQAGKSGSYLIRESDRRPGSFVLSFLSQTNVVNHFRIIAMCGDYYIGGRRFSSLSDLIGYYSHVSCLLKGEKLLYPVAPPEPVEDRRRVRAILPYTKVPDTDEISFLKGDMFIVHNELEDGWMWVTNLRTDEQGLIVEDLVEEVGREEDPHEGKIWFHGKISKQEAYNLLMTVGQVCSFLVRPSDNTPGDYSLYFRTNENIQRFKICPTPNNQFMMGGRYYNSIGDIIDHYRKEQIVEGYYLKEPVPMQDQGQVLNDTVDGKEIYNTIRRKTKDAFYKNIVKKGYLLKKGKGKRWKNLYFILEGSDAQLIYFESEKRATKPKGLIDLSVCSVYVVHDSLFGRPNCFQIVVQHFSEEHYIFYFAGETPEQAEDWMKGLQAFCSLRKSSPGTSNKRLRQVSSLVLHIEEAHKLPVKHFTNPYCNIYLNSVQVAKTHAREGQNPVWSEEFVFDDLPPDINRFEITLSNKTKKSKDPDILFMRCQLSRLQKGHATDEWFLLSSHIPLKGIEPGSLRVRARYSMEKIMPEEEYSEFKELILQKELHVVYALSHVCGQDRTLLASILLKIFLHEKLESLLLCTLNDREISMEDEATTLFRATTLASTLMEQYMKATATQFVHHALKDSILKIMESKQSCELSPSKLEKNEDVNTNLAHLLSILSELVEKIFMASEILPPTLRYIYGCLQKSVQHKWPTNNTMRTRVVSGFVFLRLICPAILNPRMFNIISDSPSPIAARTLTLVAKSVQNLANLVEFGAKEPYMEGVNPFIKSNKHRMIMFLDELGNVPELPDTTEHSRTDLSRDLAALHEICVAHSDELRTLSNERGVQQHVLKKLLAITELLQQKQNQYTKTNDIR
As for B2, the binding result in experiment [2] and in experiment [3] was “binds” in each case.
